The text below walks through data of PubChem BioAssay AID2685 (National Center for Advancing Translational Sciences (NCATS), 2010).

This experiment in a line: qHTS Assay for Lipid Storage Modulators in Drosophila S3 Cells.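 For cell number change: cells counted by Cell Tracker Red CMTPX staining in the red channel.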 As to conditions: BODIPY lipid droplet fluorescence, 18-24 h; for cell number change: measured here: cell count max response, cells fed with added oleic acid. The method, boiled down:
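Drosophila S3 cells loaded with oleic acid (400 uM, as added) and compounds at several concentrations; lipid droplets imaged by 488-nm laser-scanning cytometry, 500–530 nm intensity and object ratio to cell channel. Percent activity normalized to 20 uM Triacsin C.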
For orientation: Quantitative high-throughput screening tests each substance at several concentrations.

Setting [1] is: measured here: cell number channel AC50, cells fed with added oleic acid.
Where [2] appears, read: measured here: lipid fluorescence (Fed channel) AC50, cells fed with added oleic acid.

This is one part of the list. Further columns of the screen follow, without active or inactive calls. Compounds called inactive in the main read-out are mostly missing here. Potencies come from curve fits of mixed quality, noted in brackets.

One may read the AC50 as the midpoint of the concentration-response curve, whichever way the signal moves. High values mean weaker potency, low ones greater potency. For `Cc1cc(/C(N)=N/OC(=O)Nc2cccc(C(F)(F)F)c2)no1`, the cell number change was -51.2%. Further, under setting [1], the AC50 was 1.64 µM [falling, partial curve]. Besides, the AC50 under setting [2] is 1.84 µM [falling, partial curve].
On to `Cc1cc(OCC(=O)Nc2ccc(S(=O)(=O)N3CCN(C)CC3)cc2)cc(C)c1Cl`, for which the AC50 under setting [1] is 0.231 µM [falling, full curve, poor fit].
For the molecule `c1cc2c(cc1Oc1nc(N3CCOCC3)nc(N3CCOCC3)n1)OCO2`, the cell number change is 6.85%.
`COc1ccccc1CNC(=O)CCCOc1cc(=O)n(C)c2ccccc12`: the cell number change is 3.25%. The half-maximal activity concentration (AC50) under setting [2] was 3.26 µM [rising, single point].
`Cn1nnnc1SCC(=O)c1cccs1`: the cell number change stood at 0.605%. Also, the AC50 under setting [2] is 0.82 µM [falling, full curve, poor fit].
On to `O=C(O)c1cc2nc3c(c(C(F)(F)F)n2n1)CCc1ccccc1-3`, for which the cell number change worked out at 30%. Also, the AC50 under setting [1] is 0.58 µM [rising, full curve, poor fit]. In addition, the AC50 under setting [2] is 6.51 µM [rising, single point].
For `COc1cccc(C(=O)Nc2ccc(NC(=O)c3ccco3)nc2)c1`, the cell number change came to 0.696%.
`Cc1ccc(C(=O)Nn2c(C)nc3ccccc3c2=O)cc1C`: the cell number change turned out to be 70.3%. Further, under setting [1], the half-maximal activity concentration (AC50) is 29.1 µM [rising, single point].
With `O=C(OCC(=O)N1CCOCC1)c1cc(F)c(F)cc1Cl`, the cell number change worked out at 10.3%. For the same molecule, the AC50 under setting [2] is 29.1 µM [falling, single point].
On to `CCCCNC(=O)CCn1nc(-c2ccc(Cl)cc2)ccc1=O`, for which the cell number change was -7.09%. Besides, under setting [2], the AC50 is 29.1 µM [rising, single point].
With `COc1ccc(-n2c(C)cc(C(=O)CSc3ccc(NC(C)=O)cc3)c2C)cc1`, under setting [2], the AC50 was 9.2 µM [rising, partial curve, poor fit].
As to `COC(=O)C1(C)NC(c2ccc(F)cc2)C2C(=O)N(c3ccc(C)cc3)C(=O)C21` (centres undefined), the cell number change was determined as 17.8%.
Consider `O=C(COC(=O)CNC(=O)C1CCCCC1)Nc1cccc(F)c1`, for which the cell number change is 4.14%.
Turning to `c1ccc(-c2ccc(-c3cnc4n3CCCCC4)cc2)cc1`, the cell number change is 2.29%. For the same molecule, the AC50 under setting [1] is 2.06 µM [rising, partial curve]. For the same molecule, the AC50 under setting [2] is 2.91 µM [rising, partial curve].
For the molecule `CCN(CC)CCOC(=O)c1cccc(Cl)c1`, the cell number change is -3.39%. In addition, the AC50 under setting [1] is 0.291 µM [falling, partial curve]. Further, the concentration at half-maximal activity (AC50) under setting [2] was 29.1 µM [falling, single point].
With `O=C(O)c1cccc(-c2ccc3c(c2)OCO3)c1`, the cell number change turned out to be 7.73%. Also, the AC50 under setting [2] is 29.1 µM [rising, single point].
Regarding `C=C(C)C1CC=C(CN2CCC(O)CC2)CC1` (centres undefined), the cell number change came out at 24.6%. For the same molecule, the AC50 under setting [2] was 0.82 µM [rising, full curve, poor fit].
With `COc1cc(SC)ccc1C(=O)NCc1ccc(C)cc1`, the cell number change was found to be 38.5%. Besides, under setting [1], the AC50 is 25.9 µM [rising, single point]. Besides, the AC50 under setting [2] was 23.1 µM [rising, single point].
On to `O=C1CC(c2cccc([N+](=O)[O-])c2)c2ccc3ccccc3c2N1` (centres undefined), for which the cell number change is -17.6%. The AC50 under setting [1] is 1.64 µM [rising, partial curve, poor fit]. For the same molecule, the AC50 under setting [2] is 3.26 µM [rising, partial curve].
For `CSC1=C(C#N)C(CC(C)C)C(C(C)=O)=C(C)N1` (centres undefined), the cell number change is 10.7%. Moreover, the AC50 under setting [2] is 0.00461 µM [falling, full curve, poor fit].
With `Fc1ccc(Nc2ccnc(Nc3ccc(F)cc3)n2)cc1`, the cell number change was -33.1%. Moreover, the AC50 under setting [1] is 13 µM [falling, partial curve]. For the same molecule, under setting [2], the AC50 was 3.26 µM [rising, single point].
As to `CCCCCCCCCC(=O)N/N=C(\C)c1cccnc1`, the cell number change is -56.1%. Under setting [1], the AC50 was 14.6 µM [falling, partial curve]. The AC50 under setting [2] is 16.4 µM [falling, partial curve].
In the case of `O=C(C1CC(=O)N(c2ccc3c(c2)OCCO3)C1)N1CCN(c2ccccc2)CC1` (centres undefined), the cell number change worked out at 17.7%.
In the case of `CSc1ccccc1OCc1cc(C(=O)NCc2csc(C(C)C)n2)no1`, the cell number change was found to be 21.7%.
On to `COc1ccc(Cl)cc1NC(=S)Nc1cccnc1`, for which the cell number change was -37.6%. Moreover, under setting [2], the AC50 is 11.2 µM [rising, single point].
As to `Cc1cc(C)cc(N2C(=O)CC(c3ccccc3)CC2=O)c1`, the cell number change worked out at 1.66%. Further, the AC50 under setting [1] was 6.51 µM [rising, single point]. Besides, the AC50 under setting [2] is 6.51 µM [rising, single point].
Regarding `O=C(CSc1nncn1-c1ccccc1)Nc1cc(F)ccc1F`, the cell number change was -23%. In addition, the AC50 under setting [1] is 0.82 µM [falling, full curve, poor fit]. For the same molecule, under setting [2], the concentration at half-maximal activity (AC50) was 29.1 µM [falling, single point].
On to `Cc1csc(NC(=O)CSc2nnc3c4ccccc4nc(C(C)(C)C)n23)n1`, for which the cell number change was -30.9%. Moreover, the half-maximal activity concentration (AC50) under setting [1] is 29.1 µM [falling, single point]. In addition, under setting [2], the AC50 is 20.6 µM [falling, single point].
Turning to `COCCCNC(=S)Nc1ccc(CC(=O)O)cc1`, the cell number change is -1.71%.
Regarding `O=C(Cn1c(=O)ccn(Cc2ccccc2)c1=O)Nc1cccc(S(=O)(=O)N2CCOCC2)c1`, the cell number change is -1.92%.
As to `CCCCCCn1c(COc2ccccc2F)nnc1SCC(=O)N1c2ccccc2NC(=O)C1(C)C`, the cell number change was -43.4%. In addition, under setting [1], the AC50 is 1.64 µM [falling, single point]. Further, under setting [2], the concentration at half-maximal activity (AC50) was 25.9 µM [falling, partial curve, poor fit].
In the case of `CC(CNS(=O)(=O)c1ccc(Cl)cc1)n1cncn1` (centres undefined), the cell number change was found to be 11.3%. For the same molecule, the AC50 under setting [2] was 0.92 µM [falling, single point].
For `COc1ccc(/C(C)=N/NC(=O)C(NC(=O)c2ccccc2)c2n[nH]c(=O)c3ccccc23)c(OC)c1` (centres undefined), the cell number change was 2%. Under setting [2], the AC50 was 0.146 µM [rising, partial curve, poor fit].
With `O=C(Nc1cccnc1)c1ccccc1-c1nc(-c2ccccc2F)no1`, the cell number change worked out at 5.48%. Under setting [2], the concentration at half-maximal activity (AC50) is 29.1 µM [rising, partial curve].
For the molecule `O=C(NC(=S)Nc1nc2ccccc2s1)c1cccs1`, the cell number change was -23%. Moreover, the AC50 under setting [2] is 20.6 µM [rising, single point].
In the case of `CCOc1ccc(NS(=O)(=O)c2ccc(C(=O)N3CCCC3)cc2)cc1`, the cell number change is 19.3%. Besides, the AC50 under setting [1] was 2.06 µM [rising, partial curve].
As to `CCN(CC)S(=O)(=O)c1cccc(NC(=O)C2CC(=O)N(c3ccc4c(c3)OCCO4)C2)c1` (centres undefined), the cell number change was found to be 20.5%. Moreover, the AC50 under setting [1] is 2.31 µM [rising, single point].
For `COc1cccc(/C=N/c2sc(Cc3ccccc3)c(C)c2C(N)=O)c1O`, the cell number change was -49.8%. For the same molecule, the half-maximal activity concentration (AC50) under setting [1] was 18.4 µM [falling, partial curve]. For the same molecule, the AC50 under setting [2] is 29.1 µM [falling, single point].
Take `O=C1c2cccc3cccc(c23)C(=O)N1CCCN(C(=O)c1cccs1)c1cccc(F)c1`: the cell number change came to 16.2%. For the same molecule, the AC50 under setting [2] is 32.6 µM [rising, single point].
In the case of `CCOC(=O)c1sc(=NC(=O)/C=C/c2ccccc2)n(C)c1C`, the cell number change turned out to be 11.8%. In addition, the AC50 under setting [1] was 0.731 µM [rising, full curve, poor fit]. Besides, under setting [2], the concentration at half-maximal activity (AC50) was 2.06 µM [rising, single point].
In the case of `Cc1ccc2nc(NC(=O)CCCC(=O)O)sc2c1`, the cell number change was -27.8%. Under setting [2], the AC50 was 6.51 µM [falling, single point].
For `CCN(CCNC(=O)C1CCCN(S(=O)(=O)c2cnc[nH]2)C1)c1ccccc1` (centres undefined), the cell number change is -1.55%. In addition, the AC50 under setting [2] is 6.51 µM [rising, single point].
Take `COCCNC(=O)C(C)OC(=O)c1cc2sccc2n1C` (centres undefined): the cell number change is -11.3%. Besides, the half-maximal activity concentration (AC50) under setting [2] is 16.4 µM [falling, partial curve].
For `CCc1nnc(NC(=O)c2nc(S(=O)(=O)Cc3cccc(C)c3)ncc2Cl)s1`, the cell number change is -26.6%. Also, under setting [2], the AC50 was 6.51 µM [falling, partial curve, poor fit].
On to `Cn1c(CN2CCCCC2)nc2cc(NC(=O)c3cccc(Br)c3)ccc21`, for which the concentration at half-maximal activity (AC50) by setting is: under setting [1], 2.31 µM [rising, partial curve]; under setting [2], 0.58 µM [rising, single point].
As for `CCCC(=O)c1ccc(N2CCN(S(=O)(=O)c3ccc(C)cc3)CC2)c(F)c1`, the cell number change was 4.49%. Besides, the half-maximal activity concentration (AC50) under setting [2] was 16.4 µM [rising, partial curve].
As for `O=C(COC(=O)CN1C(=O)C2CCCCC2C1=O)NCc1ccc(Cl)cc1Cl` (centres undefined), the cell number change was found to be 5.94%.
`COc1ccc(-n2nnnc2SCC(=O)N2CCOCC2)cc1`: the cell number change came to 11.3%. The AC50 under setting [2] is 4.61 µM [falling, full curve].
Take `O=C(c1ccco1)N(CCO)Cc1cc2cc3c(cc2[nH]c1=O)OCO3`: the cell number change turned out to be 55%. Further, the half-maximal activity concentration (AC50) under setting [1] is 29.1 µM [rising, single point]. The concentration at half-maximal activity (AC50) under setting [2] was 0.651 µM [rising, single point].
For `CCCCCN(C(=O)CCC(=O)OCc1ccc(C(C)(C)C)cc1)c1c(N)n(CCCC)c(=O)[nH]c1=O`, the cell number change was -22%. Under setting [2], the AC50 is 0.00461 µM [falling, full curve, poor fit].
On to `O=C(OCc1cccc2ccccc12)C1CC(=O)N(c2ccccc2)C1` (centres undefined), for which the cell number change was 3.66%. Besides, the half-maximal activity concentration (AC50) under setting [2] is 20.6 µM [falling, single point].
As for `NC(=O)CSc1oc(-c2ccco2)nc1S(=O)(=O)c1ccc(Br)cc1`, the cell number change was -2.99%. Moreover, the AC50 under setting [2] is 32.6 µM [rising, single point].
For the molecule `O=C(CN1C(=O)CCSc2ccc(S(=O)(=O)N3CCCC3)cc21)Nc1ccccc1`, the cell number change was -6.75%. The half-maximal activity concentration (AC50) under setting [2] is 23.1 µM [rising, single point].
Regarding `Cc1cc(C)nc(N/N=C/c2ccccc2OCc2cccc(Br)c2)n1`, the cell number change is -33.1%. The AC50 under setting [1] was 13 µM [falling, partial curve]. For the same molecule, the AC50 under setting [2] is 7.31 µM [rising, partial curve].
As for `CCCc1cc(=O)oc2cc(C)cc(OCC(=O)NCC(O)c3ccccc3)c12` (centres undefined), the cell number change is -27.2%. For the same molecule, under setting [2], the AC50 is 0.00461 µM [falling, full curve, poor fit].
Take `CCCOc1ccc(NC(=O)c2cc3cc(C)ccc3[nH]2)cc1`: the cell number change is -12.9%. Under setting [2], the AC50 was 3.66 µM [rising, single point].
As for `O=[N+]([O-])c1ccc2oc(-c3ccccc3)nc2c1`, the AC50 under setting [1] was 2.59 µM [rising, single point].
Consider `COc1cc(OC)cc(C(=O)N2CCN(C3CCCCC3)CC2)c1`, for which the cell number change amounted to 12.6%.
